Test results reported in PMC10163288.
This is one part of the list.

B1: il2ra_site1_3nfp_sap_17_mot_283d32d1de96e0fd5fa90eda9d1788c9_0001_1_000000176_0001_17_32_H_._HHH_b2_01367_0001_0000500039_0000001_1_0001_af2pred_0001_af2pred_1 (protein)
chain: SSSSDESEELLEEAERLLEELLEEGDPEEALKVAEHYARLLRELGDYEAAERLLKAALEKSSSSS
B2: il2ra_site2_3nfp_sap_34_mot_HHH_b2_03235_000000174_0001_1_18_H_._82834fc24cc795dc99f6b4b83d3129f3_0001_0001_0000100001_0000001_0_0001 (protein)
chain: SSSSSSDVEELLEEAERALEEGDKLEAAQLIVEASELAARRNDPELARLVLELYKKLKSSSSSSS
B3: il2ra_site2_2erj_sap_20_mot_HHH_b1_04373_af2_000000118_0001_18_33_H_._HHH_b2_06818_0001_0000300019_0000001_0_0001 (protein)
chain: SSSSDEVEKLLEEAEELLEEGDPEKAWEVLRRAATLAFRLGDFEAFNEIAELLREIAQRLASSSS
B4: il2ra_site2_2erj_normal_mot_HHH_b1_05749_af2_000000086_0001_23_39_H_._HHH_b2_01918_0001_0000200007_0000001_0 (protein)
chain: SSSSDELEEEVEELLEEVRRAYEEGDLEEAYRLAVRVFALAAENNDPELQRAVTRLLEELSSSSS
B5: il2ra_site2_2erj_normal_mot_HHH_b2_05804_000000098_0001_44_58_H_._HHH_b2_04229_af2_0001_0000800015_0000001_0 (protein)
chain: SSSSSDERELWERVAELLARAAHIEDEEEVEELLEEAERLAREANNPFLRRYVEFARRTFSSSSS
B6: il2ra_site2_2erj_normal_mot_HHH_b2_06291_af2_000000033_0001_23_39_H_._4949e777cf0084a35dc4178a1d33e300_0001_0001_0000300010_0000001_0 (protein)
chain: SVLTIIIELVSKNPDDEALRIAYAALAAKKQGDPEALKHLQELLEELEEEGDPSAEEALRLLEEG
B7: il2ra_site1_3nfp_sap_20_mot_HHH_b2_05178_af2_000000174_0001_1_19_H_._HHH_b2_01749_0001_0001100031_0000001_1_0001_af2pred_0001_af2pred_1_swapped (protein)
chain: SSSSSREEIRRLIEEALRLAFNGNPEEAKKLLEEALRLAEEENDEKLFRIVERDLRSLEGSSSSS
B8: il2ra_site1_3nfp_sap_13_mot_HHH_b1_01159_af2_000000075_0001_1_20_H_._HHH_b2_08011_af2_0001_0000600042_0000001_0_0001 (protein)
chain: DKILEWLLRQLKENVPDPEKAARRLIESVAQAANVPPEEAIKFLRELAQELGDEELEEILRELLK
B9: il2ra_site1_3nfp_sap_20_mot_HHH_b1_03528_000000163_0001_19_38_H_._HHH_b1_01475_0001_0000300017_0000001_0_0001 (protein)
chain: SSSSSDFIEIAKRVDELLKKAAKIPDEEEVKELLEEAERLAEEANDPIARRLVEDMKKNLSSSSS
B10: il2ra_site1_3nfp_sap_11_mot_HHH_b2_05615_000000234_0001_23_39_H_._HHH_b2_06429_0001_0000100002_0000001_0_0001 (protein)
chain: SSSSNNELAKEVQEVLREAQELKKNGNPEEAERLLEEILEEAERMGDRIARRLIEDLLRLLSSSS
B11: il2ra_site1_1z92_sap_15_mot_HHH_b1_00226_000000149_0001_43_56_H_._b925e59edd779d0086be7e3255078c1f_0001_1_0001_0000300037_0000001_0_0001 (protein)
chain: TREELIEKLAELLGLPPEVVKRDLEALERLLGDPRKAVRNFLILLRQMGKLTPEVEELLEEIART
B12: il2ra_site2_2erj_sap_24_mot_HHH_b2_05720_000000165_0001_1_18_H_._8b3018496bece20695a4731cc719293d_0001_1_0001_0000100003_0000001_0_0001 (protein)
chain: SSSSSSLHELFELASRLMHAITKGDDELFRELVEEIRRLAEELNDENAKEILEWLERAFHSSSSS
B13: il2ra_site2_2erj_normal_mot_76e6e8f7232a9e65eeaab5ff8ecb4c96_0001_000000242_0001_17_31_H_._HHH_b1_06964_0001_0001300013_0000001_0_af2pred_0001_1_af2pred_swapped (protein)
chain: SSSSSEEEEEVEELLRRAEELLKRGDPEQARQVVIEAADLAARLRNEELEKLIAELLEKIRSSSS
B14: il2ra_site2_2erj_sap_24_mot_3b06bd03f1c6bceadc68eab912867b79_0001_000000296_0001_36_50_H_._HHH_b1_01731_af2_0001_0000400019_0000001_0_0001 (protein)
chain: SSSSDLEELLEEAERLLEEGDPEEAMKVLLEAATLAFERNDEELFSRLAELAHAIARANGSSSSS
B15: il2ra_site2_2erj_sap_28_mot_6c2800a769814540b5b47941e710ff28_0001_000000197_0001_35_49_H_._HHH_b2_00897_0001_0000800014_0000001_0_0001_af2pred_0001_1_af2pred_sw … (protein)
chain: SSSSSDREEVEEEVRELLERAERIPDLREALKLMEEADKLAAEIGDPELFQLVHEVLQRLSSSSS
B16: il2ra_site2_3nfp_normal_mot_HHH_b1_05627_af2_000000038_0001_43_56_H_._HHH_b1_07216_0001_0000300022_0000001_0 (protein)
chain: SSSSKLEEYIRAALIAVEEALEEGDPEAAEKSLEAAKQAAELARDEELLEEVERLEELLKSSSSS
B17: il2ra_site2_2erj_sap_21_mot_cf89365494dbba80ae51c8475d1ce666_0001_af2_000000081_0001_35_48_H_._HHH_b2_06230_0001_0000200015_0000001_0_0001 (protein)
chain: SSSSSDERLRKLFELASRLMSARTEEEFEELFEEIEELAKELNSENIEELLRHLQKLFESSSSSS
B18: il2ra_site1_3nfp_normal_mot_HHH_b1_06850_000000137_0001_20_36_H_._07b95291b2aa50a0032af9b2c932e4da_0001_0001_0000100004_0000001_1 (protein)
chain: SAAEYAVELLLKDGVPPEEILERLREDAERMGLPPEEVLQLILEVARAVGDPELEKLVEKELEET
B19: il2ra_site1_3nfp_sap_23_mot_HHH_b1_08274_af2_000000107_0001_1_20_H_._HHH_b2_05889_af2_0001_0000600011_0000001_0_0001 (protein)
chain: DREWARQLLERALENGNLEHALRALIRYARKAGNPEFVELLEEALELAKRNPEEAIKLAEEALSK

biological target: il2ra, P01589; test: yeast display titration

Apparent Kd, inactive:
B1 no binding seen
B2 no binding seen
B3 no binding seen
B4 no binding seen
B5 no binding seen
B6 no binding seen
B7 no binding seen
B8 no binding seen
B9 no binding seen
B10 no binding seen
B11 no binding seen
B12 no binding seen
B13 no binding seen
B14 no binding seen
B15 no binding seen
B16 no binding seen
B17 no binding seen
B18 no binding seen
B19 no binding seen

2 entries picked at random from those above, as already listed:
Apparent Kd, inactive:
B10 no binding seen
B18 no binding seen
